Data as given in patent US20240245654A1, “ADJUNCTIVE D-CYCLOSERINE AUGMENTATION OF TRANSCRANIAL MAGNETIC STIMULATION (TMS) THERAPY FOR MAJOR DEPRESSIVE DISORDER” (MCGRX CORP., priority 2021, published 2024).
At least one structure is not confirmed: it was looked up by name or label, or the drawing left a doubt.

Tested on: left primary motor cortex (iTBS synaptic plasticity)
Test: Repeated spaced iTBS of motor cortex, MEP and stimulus response curve, placebo-controlled crossover trial in healthy individuals (NCT05081986)
Assay type: in vivo, human
Settings: 100 mg oral one hour before iTBS, placebo=1.6[0.9,2.3], p=0.010
Description: Methods: This experiment was a pre-registered randomized, double-blind, placebo-controlled crossover trial (NCT05081986). Twenty healthy individuals were randomly assigned to one of two experimental arms of the crossover study: a) Placebo-D-cycloserine and b) D-cycloserine-placebo. In the placebo arm, participants received one oral dose of 100 mg microcrystalline cellulose one hour prior to iTBS. In the D-cycloserine 100 mg arm, participants received one oral dose of 100 mg D-cycloserine one hour before ITBS. Participants attended the laboratory on two occasions to complete both arms of the crossover design. Time of arrival was standardized across visits, and visits were separated by at least seven days.
All TMS pulses were delivered using a neuro-navigated MagPro stimulator (X100 system, MagVenture, Denmark) with a biphasic Cool-B70 figure-eight coil. […] The peak-to-peak amplitude of MEPs were recorded from two surface electromyographic (EMG) electrodes placed on the right first dorsal interosseous muscle (FDI), with the ground electrode placed on the right styloid process. […]
TMS was delivered to the left primary motor cortex to identify the area that, when stimulated, elicited the largest peak-to-peak FDI MEP amplitude (the hotspot). […] The resting motor threshold (RMT) was determined as the lowest stimulator output, which elicited peak-to-peak MEP amplitudes≥0.05 mV in 5/10 trials. […]

N[C@@H]1CONC1=O [D-cycloserine]
140%/120% MEP amplitude ratio (TMS-Stimulus Response Curve): 2.4[1.7,3.20]
